The text below walks through data of PMC10043188.

Chains of the proteins cited; added tags and fusions are not shown. Lines headed by an entry give the natural chain unless they say otherwise; changes in a name come on top. A line that says so, or that is headed by a name, gives the form on record, which may keep a tag or linker.
UniProt P11275: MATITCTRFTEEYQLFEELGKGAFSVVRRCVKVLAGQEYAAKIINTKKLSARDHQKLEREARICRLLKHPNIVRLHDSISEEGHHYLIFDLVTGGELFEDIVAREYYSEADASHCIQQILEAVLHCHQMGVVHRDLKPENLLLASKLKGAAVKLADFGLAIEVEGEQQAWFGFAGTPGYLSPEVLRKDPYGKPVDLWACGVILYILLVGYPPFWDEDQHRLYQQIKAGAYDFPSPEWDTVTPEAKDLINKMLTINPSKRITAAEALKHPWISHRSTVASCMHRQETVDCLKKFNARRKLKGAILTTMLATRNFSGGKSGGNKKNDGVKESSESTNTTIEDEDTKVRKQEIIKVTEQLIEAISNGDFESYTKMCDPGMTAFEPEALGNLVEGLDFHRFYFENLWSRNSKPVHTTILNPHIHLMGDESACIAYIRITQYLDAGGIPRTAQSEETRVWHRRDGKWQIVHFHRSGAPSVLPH
UniProt P08413: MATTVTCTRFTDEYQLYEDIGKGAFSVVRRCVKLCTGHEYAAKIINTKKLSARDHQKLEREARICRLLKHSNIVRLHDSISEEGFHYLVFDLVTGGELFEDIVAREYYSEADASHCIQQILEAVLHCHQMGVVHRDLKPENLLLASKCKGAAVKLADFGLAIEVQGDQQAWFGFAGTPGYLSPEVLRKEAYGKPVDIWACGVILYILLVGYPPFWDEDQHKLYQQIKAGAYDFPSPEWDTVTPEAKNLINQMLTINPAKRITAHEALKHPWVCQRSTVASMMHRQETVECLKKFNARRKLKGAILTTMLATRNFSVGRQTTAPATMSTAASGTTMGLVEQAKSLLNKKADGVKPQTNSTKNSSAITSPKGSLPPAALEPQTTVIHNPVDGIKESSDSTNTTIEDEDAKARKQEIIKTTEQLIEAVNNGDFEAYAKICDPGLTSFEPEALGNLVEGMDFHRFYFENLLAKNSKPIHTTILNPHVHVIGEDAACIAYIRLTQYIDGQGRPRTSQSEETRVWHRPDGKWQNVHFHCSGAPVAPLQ
Sarco/endoplasmic reticulum Ca2+-ATPase SERCA2A (P16615-2, form named): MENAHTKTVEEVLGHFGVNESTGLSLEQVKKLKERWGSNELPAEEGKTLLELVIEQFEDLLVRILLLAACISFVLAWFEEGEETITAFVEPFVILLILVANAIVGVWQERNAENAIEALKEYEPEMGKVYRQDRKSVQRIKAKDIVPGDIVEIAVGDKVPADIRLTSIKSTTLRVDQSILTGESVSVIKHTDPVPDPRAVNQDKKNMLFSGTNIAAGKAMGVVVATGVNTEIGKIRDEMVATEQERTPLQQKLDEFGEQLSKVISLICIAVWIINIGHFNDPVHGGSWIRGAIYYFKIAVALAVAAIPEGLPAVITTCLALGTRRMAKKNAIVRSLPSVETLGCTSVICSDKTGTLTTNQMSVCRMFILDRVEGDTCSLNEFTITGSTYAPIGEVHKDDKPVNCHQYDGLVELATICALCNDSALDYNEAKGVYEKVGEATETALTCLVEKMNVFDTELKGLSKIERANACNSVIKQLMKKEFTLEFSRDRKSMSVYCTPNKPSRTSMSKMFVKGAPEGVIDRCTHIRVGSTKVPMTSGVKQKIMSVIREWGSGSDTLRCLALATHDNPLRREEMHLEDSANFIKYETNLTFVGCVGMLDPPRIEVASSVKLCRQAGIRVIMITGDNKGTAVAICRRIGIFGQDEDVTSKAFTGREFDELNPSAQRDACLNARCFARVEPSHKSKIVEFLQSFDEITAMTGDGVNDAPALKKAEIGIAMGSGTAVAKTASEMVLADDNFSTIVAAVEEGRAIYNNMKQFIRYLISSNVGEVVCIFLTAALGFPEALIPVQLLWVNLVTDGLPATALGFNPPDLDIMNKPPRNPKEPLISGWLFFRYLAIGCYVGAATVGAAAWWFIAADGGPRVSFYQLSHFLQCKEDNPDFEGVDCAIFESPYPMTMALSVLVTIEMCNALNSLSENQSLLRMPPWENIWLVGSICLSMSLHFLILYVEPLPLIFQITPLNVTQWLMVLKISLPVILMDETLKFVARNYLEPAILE

Common to all, as to assay: co-IP; HEK293 cells co-transfected; lysis in Co-IP buffer (20 mM Tris-HCl, 3 mM EDTA, 3 mM EGTA, 150 mM NaCl, 1% Triton X-100, 1 mM DTT, pH 7.4); IP of myc-Arc with mouse anti-myc and GammaBind Sepharose beads overnight at 4°C; blot with anti-GFP and anti-myc
Test [1] addresses T1, Activity-regulated cytoskeleton-associated protein (Arc), wild type, myc-tagged (UniProt Q9WV31).
T1 sequence: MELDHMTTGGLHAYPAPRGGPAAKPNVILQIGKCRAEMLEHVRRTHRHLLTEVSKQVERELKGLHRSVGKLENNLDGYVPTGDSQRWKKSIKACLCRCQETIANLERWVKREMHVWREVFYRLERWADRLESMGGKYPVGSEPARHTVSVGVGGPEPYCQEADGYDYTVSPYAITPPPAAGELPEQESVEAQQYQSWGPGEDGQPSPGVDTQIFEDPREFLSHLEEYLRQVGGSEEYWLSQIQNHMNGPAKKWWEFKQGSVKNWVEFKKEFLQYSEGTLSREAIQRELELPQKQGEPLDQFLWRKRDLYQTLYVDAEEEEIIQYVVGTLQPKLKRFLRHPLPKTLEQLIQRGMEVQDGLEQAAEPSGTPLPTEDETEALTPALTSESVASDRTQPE

Test [2] has as its target T2, Arc K268R/K269R (ArcKR), myc-tagged (UniProt Q9WV31).
T2 sequence: T1 sequence with K268R, K269R

For test [3], the target named is T1, Activity-regulated cytoskeleton-associated protein (Arc), wild type, myc-tagged. The source holds these as a separate data set.
Test [4] deals with T2, Arc K268R/K269R (ArcKR), myc-tagged. This is another data set of the same source.

Where a chain is given by its changes, count along the chain named. Read-outs that look alike come from different tables or passages of the source. These are yes or no findings as the source states them, for the method shown. Binding seen in cells or lysates may run through a third protein. Some entries that bind do so weakly or less than the wild type. Sequences can lack the tags named with a protein.

Take “CaMKII alpha T286A, GFP-tagged (from UniProt P11275 1-478) (enzyme)”: the binding entry in test [1] and in test [2] was “binds” in each case.

For the molecule “CaMKII alpha T286D, GFP-tagged (from UniProt P11275 1-478) (enzyme)”, the binding result in test [1] and in test [2] was “binds” throughout.

Turning to “CaMKII beta T287D, GFP-tagged (from UniProt P08413 1-542) (enzyme)”, the binding result in test [1] and in test [2] was “binds” in each case.

On to “Calcium/calmodulin-dependent protein kinase II alpha, GFP-tagged (from UniProt P11275 1-478) (enzyme)”, for which the binding entry in test [1] and in test [2] was “binds” throughout.

Consider “Calcium/calmodulin-dependent protein kinase II beta, GFP-tagged (from UniProt P08413 1-542) (enzyme)”, for which the binding entry in test [1] and in test [2] was “binds” each time.

As for “Sarco/endoplasmic reticulum Ca2+-ATPase SERCA2A (from UniProt P16615-2 1-997) (enzyme)”, the binding result in test [1] and in test [2] was “no binding” in each case.

B1: mVenus-Calnexin (protein, UniProt P27824 21-592)
chain: HDGHDDDVIDIEDDLDDVIEEVEDSKPDTTAPPSSPKVTYKAPVPTGEVYFADSFDRGTLSGWILSKAKKDDTDDEIAKYDGKWEVEEMKESKLPGDKGLVLMSRAKHHAISAKLNKPFLFDTKPLIVQYEVNFQNGIECGGAYVKLLSKTPELNLDQFHDKTPYTIMFGPDKCGEDYKLHFIFRHKNPKTGIYEEKHAKRPDADLKTYFTDKKTHLYTLILNPDNSFEILVDQSVVNSGNLLNDMTPPVNPSREIEDPEDRKPEDWDERPKIPDPEAVKPDDWDEDAPAKIPDEEATKPEGWLDDEPEYVPDPDAEKPEDWDEDMDGEWEAPQIANPRCESAPGCGVWQRPVIDNPNYKGKWKPPMIDNPSYQGIWKPRKIPNPDFFEDLEPFRMTPFSAIGLELWSMTSDIFFDNFIICADRRIVDDWANDGWGLKKAADGAAEPGVVGQMIEAAEERPWLWVVYILTVALPVFLVILFCCSGKKQTSGMEYKKTDAPQPDVKEEEEEKEEEKDKGDEEEEGEEKLEEKQKSDAEEDGGTVSQEEEDRKPKAEEDEILNRSPRNRKPRRE
B1: the binding result in test [3] and in test [4] was “binds” in each case.
